From patent publication US9340584
These are yes or no findings as the source states them, for the method shown. Some entries that bind do so weakly or less than the wild type.

Amino acid sequences for entries named in this document (tags omitted). Residues count along the entry.
UniProt P02768, residues 25-609: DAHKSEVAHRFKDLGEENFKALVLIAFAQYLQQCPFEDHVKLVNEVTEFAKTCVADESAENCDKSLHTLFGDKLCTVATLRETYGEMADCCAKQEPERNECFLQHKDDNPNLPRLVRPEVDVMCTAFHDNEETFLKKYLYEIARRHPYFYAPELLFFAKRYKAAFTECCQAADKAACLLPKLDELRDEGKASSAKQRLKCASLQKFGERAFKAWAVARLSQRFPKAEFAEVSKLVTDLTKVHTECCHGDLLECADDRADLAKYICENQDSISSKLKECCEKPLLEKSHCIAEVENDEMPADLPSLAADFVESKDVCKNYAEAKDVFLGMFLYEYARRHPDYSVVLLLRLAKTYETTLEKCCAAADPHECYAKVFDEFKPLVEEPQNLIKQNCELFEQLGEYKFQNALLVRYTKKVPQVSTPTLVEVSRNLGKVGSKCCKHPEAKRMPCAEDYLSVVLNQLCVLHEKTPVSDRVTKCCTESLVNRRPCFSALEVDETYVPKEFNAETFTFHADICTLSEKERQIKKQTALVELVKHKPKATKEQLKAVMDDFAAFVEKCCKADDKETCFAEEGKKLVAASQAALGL
UniProt P07766, residues 23-126: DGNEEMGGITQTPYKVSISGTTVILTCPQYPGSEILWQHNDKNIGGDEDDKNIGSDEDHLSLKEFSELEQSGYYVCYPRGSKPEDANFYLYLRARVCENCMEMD

Legend:
[1] = target: human serum albumin (human) (UniProt P02768); assay: phage display selection from TRX-3 library
[2] = target: human serum albumin (human) (UniProt P02768); assay: phage ELISA, HSA-biotin on streptavidin plate (FIG. 18B)
[3] = target: human serum albumin (human) (UniProt P02768); assay: phage ELISA summary (FIG. 18C)
[4] = target: human serum albumin (human) (UniProt P02768); assay: phage ELISA in triplets, HSA-biotin on streptavidin plate
[5] = target: human serum albumin (human) (UniProt P02768); assay: phage ELISA, HSA-biotin on streptavidin plate
[6] = target: human serum albumin (human) (UniProt P02768); assay: SPR, Biacore T100, HSA on CM5 chip
[7] = target: CD3e (recombinant target protein of Table 9) (UniProt P07766); assay: phage display selection from TRX-3 library
[8] = target: T1, EpCam (recombinant target protein of Table 9) (UniProt P16422); assay: phage display selection from TRX-3 library
T1 sequence (biotinylated with BirA + ATP + Biotin, looked up): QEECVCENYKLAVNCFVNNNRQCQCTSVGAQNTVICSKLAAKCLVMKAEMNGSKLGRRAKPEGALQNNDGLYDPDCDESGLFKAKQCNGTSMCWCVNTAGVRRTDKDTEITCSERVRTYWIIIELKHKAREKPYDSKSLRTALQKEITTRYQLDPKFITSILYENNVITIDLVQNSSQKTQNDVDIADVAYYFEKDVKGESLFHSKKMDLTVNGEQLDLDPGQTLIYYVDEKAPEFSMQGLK

B1: HSA binder E5 (TRX-3 library), phage-displayed (designed binder)
chain: MVKQIESKTAFQEALDAAGDKLVVVDFSATRRNERARDWWSGPSKMIKPFFHSLSEKYSNVIFLEVDVDDAQDVASEALAAGPFYLLPTFQFFKKGQKVGEFSGANKEKLEATINELV
binding [1]: binds
binding [2]: binds
binding [3]: binds
binding [4]: binds
binding [5]: binds

B2: HSA binder G5 (TRX-3 library), phage-displayed (designed binder)
chain: MVKQIESKTAFQEALDAAGDKLVVVDFSATRLRTGGHPYWSGPSKMIKPFFHSLSEKYSNVIFLEVDVDDAQDVASEAVYVSLSRHRPTFQFFKKGQKVGEFSGANKEKLEATINELV
binding [1]: binds
binding [2]: binds
binding [3]: binds
binding [4]: binds
binding [5]: binds

B3: HSA binder E1 (TRX-3 library), phage-displayed (designed binder)
chain: MVKQIESKTAFQEALDAAGDKLVVVDFSATRSENDRWNEWSGPSKMIKPFFHSLSEKYSNVIFLEVDVDDAQDVASEALIAGPFWYSPTFQFFKKGQKVGEFSGANKEKLEATINELV
binding [1]: binds
binding [2]: binds
binding [3]: binds
binding [4]: binds
binding [5]: binds

B4: mutant TRX protein E2 (HSA binder, purified) (designed binder)
chain: MVKQIESKTAFQEALDAAGDKLVVVDFSATKNEKRDVAEWSGPSKMIKPFFHSLSEKYSNVIFLEVDVDDAQDVASEAFGFFGFPVLPTFQFFKKGQKVGEFSGANKEKLEATINELV
binding [6]: binds

B5: mutant TRX protein F3 (HSA binder, purified) (designed binder)
chain: MVKQIESKTAFQEALDAAGDKLVVVDFSATGGTPGRRNRWSGPSKMIKPFFHSLSEKYSNVIFLEVDVDDAQDVASEAFCEFCFPFLPTFQFFKKGQKVGEFSGANKEKLEATINELV
binding [6]: binds

B6: mutant TRX protein H6 (HSA binder, purified) (designed binder)
chain: MVKQIESKTAFQEALDAAGDKLVVVDFSATDRKPWKTRGWSGPSKMIKPFFHSLSEKYSNVIFLEVDVDDAQDVASEAFGLFSFPLLPTFQFFKKGQKVGEFSGANKEKLEATINELV
binding [6]: binds

B7: CD3ε binder A3 (TRX-3 library) (designed binder)
chain: MVKQIESKTAFQEALDAAGDKLVVVDFSATGRCYVDGRLWSGPSKMIKPFFHSLSEKYSNVIFLEVDVDDAQDVASEAKRMLCLVRTPTFQFFKKGQKVGEFSGANKEKLEATINELV
binding [7]: binds

B8: CD3ε binder C4 (TRX-3 library) (designed binder)
chain: MVKQIESKTAFQEALDAAGDKLVVVDFSATVTCDHEGCKWSGPSKMIKPFFHSLSEKYSNVIFLEVDVDDAQDVASEASNFAVTFFFPTFQFFKKGQKVGEFSGANKEKLEATINELV
binding [7]: binds

B9: EpCAM binder A6 (TRX-3 library) (designed binder)
chain: MVKQIESKTAFQEALDAAGDKLVVVDFSATNRNGEKHAHWSGPSKMIKPFFHSLSEKYSNVIFLEVDVDDAQDVASEAGLLWSIPFRPTFQFFKKGQKVGEFSGANKEKLEATINELV
binding [8]: binds

B10: EpCAM binder A4 (TRX-3 library) (designed binder)
chain: MVKQIESKTAFQEALDAAGDKLVVVDFSATTRDWNRDVNWSGPSKMIKPFFHSLSEKYSNVIFLEVDVDDAQDVASEAQLTLSIPFRPTFQFFKKGQKVGEFSGANKEKLEATINELV
binding [8]: binds

B11: EpCAM binder C9 (TRX-3 library) (designed binder)
chain: MVKQIESKTAFQEALDAAGDKLVVVDFSATSEANGEEWSGPSKMIKPFFHSLSEKYSNVIFLEVDVDDAQDVASEALRVWSIPERPTFQFFKKGQKVGEFSGANKEKLEATINELV
binding [8]: binds

B12: EpCAM binder G6 (TRX-3 library) (designed binder)
chain: MVKQIESKTAFQEALDAAGDKLVVVDFSATHTNESRDGNWSGPSKMIKPFFHSLSEKYSNVIFLEVDVDDAQDVASEAELIWSLPERPTFQFFKKGQKVGEFSGANKEKLEATINELV
binding [8]: binds

B13: EpCAM binder F6 (TRX-3 library) (designed binder)
chain: MVKQIESKTAFQEALDAAGDKLVVVDFSATGQNRKRTEDWSGPSKMIKPFFHSLSEKYSNVIFLEVDVDDAQDVASEAAILISLPERPTFQFFKKGQKVGEFSGANKEKLEATINELV
binding [8]: binds

B14: EpCAM binder F12 (TRX-3 library) (designed binder)
chain: MVKQIESKTAFQEALDAAGDKLVVVDFSATRGPWSGPSKMIKPFFHSLSEKYSNVIFLEVDVDDAQDVASEAFHASFVPLRPTFQFFKKGQKVGEFSGANKEKLEATINELV
binding [8]: binds

B15: EpCAM binder E10 (TRX-3 library) (designed binder)
chain: MVKQIESKTAFQEALDAAGDKLVVVDFSATQHKPWSGPSKMIKPFFHSLSEKYSNVIFLEVDVDDAQDVASEASYVYALPRRPTFQFFKKGQKVGEFSGANKEKLEATINELV
binding [8]: binds

B16: EpCAM binder A2 (TRX-3 library) (designed binder)
chain: MVKQIESKTAFQEALDAAGDKLVVVDFSATCGRYEEGRRWSGPSKMIKPFFHSLSEKYSNVIFLEVDVDDAQDVASEALPLVYFCPYPTFQFFKKGQKVGEFSGANKEKLEATINELV
binding [8]: binds

B17: EpCAM binder A11 (TRX-3 library) (designed binder)
chain: MVKQIESKTAFQEALDAAGDKLVVVDFSATGCVRTMARRWSGPSKMIKPFFHSLSEKYSNVIFLEVDVDDAQDVASEAMSSNKYICFPTFQFFKKGQKVGEFSGANKEKLEATINELV
binding [8]: binds

B18: EpCAM binder E4 (TRX-3 library) (designed binder)
chain: MVKQIESKTAFQEALDAAGDKLVVVDFSATCVVTTGDSKWSGPSKMIKPFFHSLSEKYSNVIFLEVDVDDAQDVASEATRELLPYCWPTFQFFKKGQKVGEFSGANKEKLEATINELV
binding [8]: binds

B19: EpCAM binder E5 (TRX-3 library) (designed binder)
chain: MVKQIESKTAFQEALDAAGDKLVVVDFSATYRTHTNEIRWSGPSKMIKPFFHSLSEKYSNVIFLEVDVDDAQDVASEARFLTLRSSSPTFQFFKKGQKVGEFSGANKEKLEATINELV
binding [8]: binds

B20: EpCAM binder E6 (TRX-3 library) (designed binder)
chain: MVKQIESKTAFQEALDAAGDKLVVVDFSATSRQGGICSRWSGPSKMIKPFFHSLSEKYSNVIFLEVDVDDAQDVASEARISLWCAWTPTFQFFKKGQKVGEFSGANKEKLEATINELV
binding [8]: binds

B21: EpCAM binder E7 (TRX-3 library) (designed binder)
chain: MVKQIESKTAFQEALDAAGDKLVVVDFSATGSSPESRVHWSGPSKMIKPFFHSLSEKYSNVIFLEVDVDDAQDVASEAACKHRVCFFPTFQFFKKGQKVGEFSGANKEKLEATINELV
binding [8]: binds

B22: EpCAM binder F1 (TRX-3 library) (designed binder)
chain: MVKQIESKTAFQEALDAAGDKLVVVDFSATNWSSSSGKDWSGPSKMIKPFFHSLSEKYSNVIFLEVDVDDAQDVASEARYVFPPEAVPTFQFFKKGQKVGEFSGANKEKLEATINELV
binding [8]: binds

B23: EpCAM binder F2 (TRX-3 library) (designed binder)
chain: MVKQIESKTAFQEALDAAGDKLVVVDFSATQCWARRRDRWSGPSKMIKPFFHSLSEKYSNVIFLEVDVDDAQDVASEAGPRNTLLCFPTFQFFKKGQKVGEFSGANKEKLEATINELV
binding [8]: binds

B24: EpCAM binder F3 (TRX-3 library) (designed binder)
chain: MVKQIESKTAFQEALDAAGDKLVVVDFSATDTTKDRGGTWSGPSKMIKPFFHSLSEKYSNVIFLEVDVDDAQDVASEALPWTVQFGYPTFQFFKKGQKVGEFSGANKEKLEATINELV
binding [8]: binds

B25: EpCAM binder F10 (TRX-3 library) (designed binder)
chain: MVKQIESKTAFQEALDAAGDKLVVVDFSATGKVCGGKRRWSGPSKMIKPFFHSLSEKYSNVIFLEVDVDDAQDVASEAARPHFCPVMPTFQFFKKGQKVGEFSGANKEKLEATINELV
binding [8]: binds

B26: EpCAM binder F11 (TRX-3 library) (designed binder)
chain: MVKQIESKTAFQEALDAAGDKLVVVDFSATRDARAAPPSWSGPSKMIKPFFHSLSEKYSNVIFLEVDVDDAQDVASEALPWPSYFGLPTFQFFKKGQKVGEFSGANKEKLEATINELV
binding [8]: binds

B27: EpCAM binder G9 (TRX-3 library) (designed binder)
chain: MVKQIESKTAFQEALDAAGDKLVVVDFSATWNTRAHCSRWSGPSKMIKPFFHSLSEKYSNVIFLEVDVDDAQDVASEALLPPLCTIDPTFQFFKKGQKVGEFSGANKEKLEATINELV
binding [8]: binds

B28: EpCAM binder H2 (TRX-3 library) (designed binder)
chain: MVKQIESKTAFQEALDAAGDKLVVVDFSATKENNGWRGNWSGPSKMIKPFFHSLSEKYSNVIFLEVDVDDAQDVASEAMAGPRVMGPPTFQFFKKGQKVGEFSGANKEKLEATINELV
binding [8]: binds

B29: EpCAM binder H3 (TRX-3 library) (designed binder)
chain: MVKQIESKTAFQEALDAAGDKLVVVDFSATNKRGEGWQKWSGPSKMIKPFFHSLSEKYSNVIFLEVDVDDAQDVASEASVIMWPQLWPTFQFFKKGQKVGEFSGANKEKLEATINELV
binding [8]: binds

B30: EpCAM binder H9 (TRX-3 library) (designed binder)
chain: MVKQIESKTAFQEALDAAGDKLVVVDFSATCYAVREGQGWSGPSKMIKPFFHSLSEKYSNVIFLEVDVDDAQDVASEALYTALLYCTPTFQFFKKGQKVGEFSGANKEKLEATINELV
binding [8]: binds
